From PMC11375261
Results are given in words; binding and its absence hold for the method and conditions named. Binding seen in cells or lysates may run through a third protein. A result given as binding can be weak or reduced; the word gives no strength. Sequences can lack the tags named with a protein. Blank lines part the entries; values can stand above or below the binder they belong to.

By UniProt entry, the sequences of proteins in these tests, tags left out. Where a name states a change or a piece, a line headed by the entry shows the natural chain unless it says otherwise.
UniProt Q92581: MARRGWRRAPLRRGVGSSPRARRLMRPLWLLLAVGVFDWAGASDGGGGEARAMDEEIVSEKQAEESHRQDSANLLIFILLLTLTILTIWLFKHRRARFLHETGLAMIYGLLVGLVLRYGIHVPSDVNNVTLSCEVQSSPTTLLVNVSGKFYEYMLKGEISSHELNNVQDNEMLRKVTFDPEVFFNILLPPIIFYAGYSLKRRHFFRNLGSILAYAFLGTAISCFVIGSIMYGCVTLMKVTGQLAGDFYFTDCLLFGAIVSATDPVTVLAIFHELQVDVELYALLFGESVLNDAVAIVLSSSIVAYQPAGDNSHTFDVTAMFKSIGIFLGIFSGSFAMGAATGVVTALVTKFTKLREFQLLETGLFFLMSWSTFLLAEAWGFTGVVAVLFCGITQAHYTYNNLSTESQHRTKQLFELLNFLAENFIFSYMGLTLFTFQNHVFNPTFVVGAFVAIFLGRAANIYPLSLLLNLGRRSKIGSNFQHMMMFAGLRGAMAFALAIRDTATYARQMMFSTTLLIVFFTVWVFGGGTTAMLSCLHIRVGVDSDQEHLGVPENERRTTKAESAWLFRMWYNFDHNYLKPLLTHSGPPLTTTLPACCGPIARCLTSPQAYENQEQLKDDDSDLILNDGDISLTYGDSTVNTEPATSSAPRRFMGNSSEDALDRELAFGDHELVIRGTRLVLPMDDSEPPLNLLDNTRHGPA

Assays:
[1] = target: HA-tagged full-length human NHE6.2 (NHE6-HA) (human) (UniProt Q92581); assay: co-IP; HEK293T cells cotransfected with NHE6-HA and a GGA1 construct; lysate precipitated with anti-HA, blotted with anti-GGA1 or anti-GFP
[2] = target: GGA3; assay: co-IP; coexpression in HEK293T cells; GGA3 pulled down, partners found by blot (Fig. S2A)

B1: GFP-tagged mGGA1 Hinge domain (aa 299–505) (domain or fragment, UniProt Q8R0H9 299-505)
chain: GEEVNGDATASSIPGSTSALLDLSGLDLPPPGTTQPATPTRPGNQSSPEQLSASVSLLDDELMSLGLSDPTPPSGTSSDSVGWDNFQSSDGTESSVPPPAQAPSMDCRPPAQAPPPTSSGLDDLDLLGKTLMQQALPPEAQQVRWEKQQPAPRLTLRDLQSKSSSPSPGAASLLHTTSPEPPGPPPQATPTEFSLTSITVPLESIKP
binding [1]: binds weakly

B4: GFP-tagged mGGA1 GAT domain (aa 171–298) (domain or fragment, UniProt Q8R0H9 171-298)
chain: DEEKSKMLARLLKSSHPEDLRAANKLIKEMVQEDQKRMEKISKRVNAIEEVNNNVKLLTEMVMSHSQGAASSSSEDLMKELYQRCERMRPTLFRLASDTEDNDEALAEILQANDNLTQVINLYKQLVR
binding [1]: binds

B6: GFP-tagged mGGA1 GAT+Hinge (aa 171–505) (domain or fragment, UniProt Q8R0H9 171-505)
chain: DEEKSKMLARLLKSSHPEDLRAANKLIKEMVQEDQKRMEKISKRVNAIEEVNNNVKLLTEMVMSHSQGAASSSSEDLMKELYQRCERMRPTLFRLASDTEDNDEALAEILQANDNLTQVINLYKQLVRGEEVNGDATASSIPGSTSALLDLSGLDLPPPGTTQPATPTRPGNQSSPEQLSASVSLLDDELMSLGLSDPTPPSGTSSDSVGWDNFQSSDGTESSVPPPAQAPSMDCRPPAQAPPPTSSGLDDLDLLGKTLMQQALPPEAQQVRWEKQQPAPRLTLRDLQSKSSSPSPGAASLLHTTSPEPPGPPPQATPTEFSLTSITVPLESIKP
binding [1]: binds

B10: GFP-tagged mGGA1 VHS domain (aa 17–147) (domain or fragment, UniProt Q8R0H9 17-147)
chain: ATNPLNKELNWASINSFCEQLNEDFEGPPLATRLLAHKIQSPQEWEAIQALTVLETCMKSCGKRFHDEVGKFRFLNELIKVVSPKYLGSRTSEKVKSKILELLYSWTVCLPEEVKIAEAYQMLKKQGIVKS
binding [1]: binds

B11: GFP-tagged mGGA1 Hinge+GAE (aa 299–627) (domain or fragment, UniProt Q8R0H9 299-627)
chain: GEEVNGDATASSIPGSTSALLDLSGLDLPPPGTTQPATPTRPGNQSSPEQLSASVSLLDDELMSLGLSDPTPPSGTSSDSVGWDNFQSSDGTESSVPPPAQAPSMDCRPPAQAPPPTSSGLDDLDLLGKTLMQQALPPEAQQVRWEKQQPAPRLTLRDLQSKSSSPSPGAASLLHTTSPEPPGPPPQATPTEFSLTSITVPLESIKPSSILPVTVYDQHGFRVLFHFARDPLPGRSDVLVVVVSMLSTAPQPIRNIVFQSAVPKVMKVRLQPPSGTELPAFNPIVHPSAITQVLLLANPQKEKVRLRYKLIFTMGDQTYNEMGDVDQFP
binding [1]: binds

B12: GFP-tagged mGGA1 VHS + GAT (aa 1–298) (domain or fragment, UniProt Q8R0H9 1-298)
chain: MEPAMEPETLEARINRATNPLNKELNWASINSFCEQLNEDFEGPPLATRLLAHKIQSPQEWEAIQALTVLETCMKSCGKRFHDEVGKFRFLNELIKVVSPKYLGSRTSEKVKSKILELLYSWTVCLPEEVKIAEAYQMLKKQGIVKSDPKLPEDAIFPLPPPRPKNVIFEDEEKSKMLARLLKSSHPEDLRAANKLIKEMVQEDQKRMEKISKRVNAIEEVNNNVKLLTEMVMSHSQGAASSSSEDLMKELYQRCERMRPTLFRLASDTEDNDEALAEILQANDNLTQVINLYKQLVR
binding [1]: binds

B13: GFP-tagged mGGA1 GAE domain (aa 506–627) (domain or fragment, UniProt Q8R0H9 506-627)
chain: SSILPVTVYDQHGFRVLFHFARDPLPGRSDVLVVVVSMLSTAPQPIRNIVFQSAVPKVMKVRLQPPSGTELPAFNPIVHPSAITQVLLLANPQKEKVRLRYKLIFTMGDQTYNEMGDVDQFP
binding [1]: binds

Second part, the binder after the results:

binding [2]: binds
B2: GGA1 coexpressed with GGA3 (protein, UniProt Q8R0H9 1-635)
chain: MEPAMEPETLEARINRATNPLNKELNWASINSFCEQLNEDFEGPPLATRLLAHKIQSPQEWEAIQALTVLETCMKSCGKRFHDEVGKFRFLNELIKVVSPKYLGSRTSEKVKSKILELLYSWTVCLPEEVKIAEAYQMLKKQGIVKSDPKLPEDAIFPLPPPRPKNVIFEDEEKSKMLARLLKSSHPEDLRAANKLIKEMVQEDQKRMEKISKRVNAIEEVNNNVKLLTEMVMSHSQGAASSSSEDLMKELYQRCERMRPTLFRLASDTEDNDEALAEILQANDNLTQVINLYKQLVRGEEVNGDATASSIPGSTSALLDLSGLDLPPPGTTQPATPTRPGNQSSPEQLSASVSLLDDELMSLGLSDPTPPSGTSSDSVGWDNFQSSDGTESSVPPPAQAPSMDCRPPAQAPPPTSSGLDDLDLLGKTLMQQALPPEAQQVRWEKQQPAPRLTLRDLQSKSSSPSPGAASLLHTTSPEPPGPPPQATPTEFSLTSITVPLESIKPSSILPVTVYDQHGFRVLFHFARDPLPGRSDVLVVVVSMLSTAPQPIRNIVFQSAVPKVMKVRLQPPSGTELPAFNPIVHPSAITQVLLLANPQKEKVRLRYKLIFTMGDQTYNEMGDVDQFPPPETWGSL

binding [1]: binds
B3: mGGA1 (mouse GGA1 from pCMV-mGGA1, untagged) (protein, UniProt Q8R0H9 1-635)
chain: B2 chain

binding [2]: binds
B5: HA-tagged mouse NHE9 (protein, UniProt Q8BZ00 1-644)
chain: MAGQLRFTSGKDEDHFQHQGAVELLAFNFLLILTILTIWLFKNHRFRFLHETGGAMVYGLIMGLILRYATAPTDIDSGTVYNCGNLFFSPSTLLVNITDQVYEYKYQREINQHNISPHQGNAILEKMTFDPEIFFNVLLPPIIFHAGYSLKKRHFFQNLGSILTYAFLGTAISCVVIGLIMYGFVKAMVHAGQLKSGDFHFTDCLFFGSLMSATDPVTVLAIFHELHVDPDLYTLLFGESVLNDAVAIVLTYSISIYSPKENPNAFDTAAFFQSVGNFLGIFAGSFAMGSAYAVVTALLTKFTKLREFPMLETGLFFLLSWSAFLSAEAAGLTGIVAVLFCGVTQAHYTYNNLSSDSKLRTKQLFEFMNFLAENVIFCYMGLALFTFQNHIFNALFILGAFLAIFVARACNIYPLSFLLNLGRKQKIPWNFQHMMMFSGLRGAIAFALAIRNTESQPKQMMFTTTLLLVFFTVWVFGGGTTPMLTWLQIRVGVDLDESLKEEPSSQQEANKLDKNMTKTESAQLFRMWYGFDHKYLKPILTHSGPPLTTTLPAWCGPVSRLLTSPQAYGEQLKEDDVECIVNQDELAMNYQEQSPSPSSPTTKLALDQKSSGQTPGKENIYEGDLGLGGYDLKLEQTRGQPQMD

binding [1]: binds
B7: GFP-tagged mGGA1 del Hinge (del aa 299–505) (protein, UniProt Q8R0H9)
chain: MEPAMEPETLEARINRATNPLNKELNWASINSFCEQLNEDFEGPPLATRLLAHKIQSPQEWEAIQALTVLETCMKSCGKRFHDEVGKFRFLNELIKVVSPKYLGSRTSEKVKSKILELLYSWTVCLPEEVKIAEAYQMLKKQGIVKSDPKLPEDAIFPLPPPRPKNVIFEDEEKSKMLARLLKSSHPEDLRAANKLIKEMVQEDQKRMEKISKRVNAIEEVNNNVKLLTEMVMSHSQGAASSSSEDLMKELYQRCERMRPTLFRLASDTEDNDEALAEILQANDNLTQVINLYKQLVRSSILPVTVYDQHGFRVLFHFARDPLPGRSDVLVVVVSMLSTAPQPIRNIVFQSAVPKVMKVRLQPPSGTELPAFNPIVHPSAITQVLLLANPQKEKVRLRYKLIFTMGDQTYNEMGDVDQFPPPETWGSL

binding [1]: binds
B8: GFP-tagged mGGA1 del GAE (aa 1–505) (domain or fragment, UniProt Q8R0H9 1-505)
chain: MEPAMEPETLEARINRATNPLNKELNWASINSFCEQLNEDFEGPPLATRLLAHKIQSPQEWEAIQALTVLETCMKSCGKRFHDEVGKFRFLNELIKVVSPKYLGSRTSEKVKSKILELLYSWTVCLPEEVKIAEAYQMLKKQGIVKSDPKLPEDAIFPLPPPRPKNVIFEDEEKSKMLARLLKSSHPEDLRAANKLIKEMVQEDQKRMEKISKRVNAIEEVNNNVKLLTEMVMSHSQGAASSSSEDLMKELYQRCERMRPTLFRLASDTEDNDEALAEILQANDNLTQVINLYKQLVRGEEVNGDATASSIPGSTSALLDLSGLDLPPPGTTQPATPTRPGNQSSPEQLSASVSLLDDELMSLGLSDPTPPSGTSSDSVGWDNFQSSDGTESSVPPPAQAPSMDCRPPAQAPPPTSSGLDDLDLLGKTLMQQALPPEAQQVRWEKQQPAPRLTLRDLQSKSSSPSPGAASLLHTTSPEPPGPPPQATPTEFSLTSITVPLESIKP

binding [1]: binds
B9: GFP-tagged mGGA1 del VHS (aa 171–635) (domain or fragment, UniProt Q8R0H9 171-635)
chain: DEEKSKMLARLLKSSHPEDLRAANKLIKEMVQEDQKRMEKISKRVNAIEEVNNNVKLLTEMVMSHSQGAASSSSEDLMKELYQRCERMRPTLFRLASDTEDNDEALAEILQANDNLTQVINLYKQLVRGEEVNGDATASSIPGSTSALLDLSGLDLPPPGTTQPATPTRPGNQSSPEQLSASVSLLDDELMSLGLSDPTPPSGTSSDSVGWDNFQSSDGTESSVPPPAQAPSMDCRPPAQAPPPTSSGLDDLDLLGKTLMQQALPPEAQQVRWEKQQPAPRLTLRDLQSKSSSPSPGAASLLHTTSPEPPGPPPQATPTEFSLTSITVPLESIKPSSILPVTVYDQHGFRVLFHFARDPLPGRSDVLVVVVSMLSTAPQPIRNIVFQSAVPKVMKVRLQPPSGTELPAFNPIVHPSAITQVLLLANPQKEKVRLRYKLIFTMGDQTYNEMGDVDQFPPPETWGSL
